“And” between values parts separate entries of the source, which are not always exact repeats. Equal entries are not always repeated. The whole screen tested about 360,000 compounds, of which about 7,500 (2.1%) were called active. The inconclusive results got no clear call from the source; some entries with a clear call stand among them for comparison. Calls follow the shape of the dose curve; as a rule, active = well fitted inhibition curve with a large enough effect; inconclusive = small, poorly fitted or top-dose-only effect, or effect the other way; inactive = flat fitted curve, though single readings scatter. Where the call is inconclusive, the potency comes from a doubtful curve fit.
assay: Nrf2 qHTS screen for inhibitors; conditions: A549 ARE-Fluc reporter, luciferase luminescence, 18-24 h; series mostly up to 46 µM; also: nearly all actives have a fitted effect of over 60% in size
In short: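 A549 ARE_Fluc cells, 5000/well, 5% FBS OPTI-MEM; compounds in dose-response, 18-24 h at 37 °C/5% CO2; CellTiter-Fluor viability read (Ex 405/Em 525), then BugLite luciferase luminescence = Nrf2 activity.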
Potency is read from the fitted curve at half-maximal effect.

Compound	Potency
CSCCC(NC(=O)c1ccccc1)C(=O)N1CCN(C(c2ccccc2)c2ccccc2)CC1 (configuration not stated)	inconclusive: 25.9 µM [falling, single point]
Cc1cc(C)c(NC(=O)C2CCN(C(=O)N3CC(C)Oc4ccc(Cl)cc43)CC2)c(C)c1 (configuration not stated)	inconclusive: 29.1 µM [falling, single point]
N/C(=N\N=C\c1ccc(Br)o1)c1nonc1N	inconclusive: 20.6 µM [activator, partial curve, poor fit]
Cc1ccc(-c2nc3cc(Cl)ccc3o2)cc1NC(=O)c1cc2ccccc2o1	inconclusive: 14.6 µM [activator, partial curve, poor fit]
CCc1[nH]nc(C(=O)N2CCCC(N3CCN(c4ccccc4C)CC3)C2)c1C (configuration not stated)	inactive
O=C(CCN1C(=O)c2ccccc2C1=O)Nc1ccc(-c2nc3ccccc3o2)cc1	inactive
Cc1nc2c(=O)[nH]c3ccccc3c2o1	inconclusive: 0.0041 µM [falling, full curve, poor fit]
Cc1cccc(CSC(=N)N)c1	inactive
Fc1cnc(N2CCc3ccccc32)nc1N1CCc2ccccc21	inconclusive: 2.59 µM [activator, full curve]
O=C(O)c1cc(-c2ccc3ccccc3n2)nc2ccccc12	inconclusive: 29.1 µM [falling, single point]
O=C(CCNc1cccc(F)c1)c1cccc([N+](=O)[O-])c1	inactive
COC(=O)c1sc(NC(=O)c2ccc(Cn3cc(Cl)cn3)o2)c(C#N)c1C	inconclusive: 29.1 µM [falling, single point]
CCCCOc1ccc(OCCNS(=O)(=O)N(C)C)cc1	inconclusive: 32.6 µM [falling, single point]
COc1ccc(-c2nc3ccc(NC(C)=O)cc3c(=O)n2Cc2cccc(Cl)c2)cc1COc1ccc(NC(C)=O)cc1	inconclusive: 18.4 µM [falling, single point]
C/C(=N\NC(=O)c1cc(-c2cccnc2)nc2ccccc12)c1ccccc1O	inconclusive: 20.6 µM [falling, single point]
Cc1ccc(C(=O)Nc2ccc(N3CCN(C)CC3)cc2)cc1C	inconclusive: 4.11 µM [activator, full curve]
COCC(C)N=C1NN=C(c2c[nH]c3ccccc23)CS1 (configuration not stated)	inconclusive: 2.91 µM [activator, full curve]
C/C(=N/OCO/N=C(/C)c1ccc(F)cc1)c1ccc(F)cc1	inconclusive: 29.1 µM [activator, single point]
O=C(CN(c1cccc(Cl)c1)S(=O)(=O)c1ccc(Cl)cc1)NCc1ccccn1	active: 20.6 µM
COCCN=c1scc(-c2cc(OC)ccc2OC)n1/N=C/c1c[nH]c2ccccc12	inconclusive: 18.4 µM [falling, partial curve]
Cn1c(=O)n(Cc2ccccc2Cl)c(=O)c2c1nc1n2CCN1c1ccccc1	inconclusive: 23.1 µM [falling, single point]

In another format: entries from further up.
Compound | Potency
COC(=O)c1sc(NC(=O)c2ccc(Cn3cc(Cl)cn3)o2)c(C#N)c1C | inconclusive: 29.1 µM [falling, single point]
CCCCOc1ccc(OCCNS(=O)(=O)N(C)C)cc1 | inconclusive: 32.6 µM [falling, single point]

Next compounds.

Compound	Potency
CCOC(=O)C1(CCOc2ccccc2)CCN(Cc2cccc3nonc23)CC1	active: 20.6 µM
Cc1ccc2nc(-c3ccc(SCC(=O)N4CCc5ccccc54)nc3)[nH]c2c1	inactive
CCOc1cc(C=NN2CCCCCC2)ccc1O	inconclusive: 7.31 µM [activator, partial curve, poor fit]
COc1cc(OC)c(C(=O)NNC(=S)NC2CCCCC2)cc1OC	inconclusive: 20.6 µM [falling, single point]
COCC(=O)Nc1nc2n(n1)C(c1ccc(Cl)cc1)CC(c1ccc(OC)cc1)N2 (configuration not stated)	inconclusive: 23.1 µM [falling, partial curve, poor fit]
Cc1ccc2c(c1)/C(=N/N1C(=O)c3ccccc3C1=O)C(=O)N2	inactive
CCc1noc(C)c1C(=O)NCCc1ccccc1	inconclusive: 23.1 µM [activator, partial curve]
CC(Oc1ccccc1F)C(=O)Nc1ccc2ccccc2c1 (configuration not stated)	inconclusive: 23.1 µM [activator, single point]
CCc1nn(CCCN2CCN(c3cccc(Cl)c3)CC2)c(=O)n1CCOc1ccccc1	active: 16.4 µM
Cc1csc(=Nc2ccc(S(=O)(=O)N3CCOCC3)cc2)n1Cc1ccco1	inconclusive: 23.1 µM [falling, single point] and inconclusive: 18.4 µM [falling, single point]
COc1cccc(-c2nc(-c3cccs3)no2)c1	inconclusive: 10.3 µM [activator, partial curve]
COc1cc(/C=C2\SC(=O)N(Cc3ccc(F)cc3)C2=O)cc([N+](=O)[O-])c1O	inconclusive: 20.6 µM [falling, single point]
CCc1ccc(OCC(=O)Nc2cc3oc4ccccc4c3cc2OC)c(Br)c1	inconclusive: 0.0041 µM [falling, full curve, poor fit]
CNc1nc(N/N=C/c2cc3c(cc2[N+](=O)[O-])OCO3)nc(Nc2ccccc2)n1	active: 18.4 µM
CC(=O)Nc1ccc(C(=O)NNC(=O)C2CC2)cc1	inconclusive: 9.2 µM [activator, partial curve, poor fit]
COc1ccc(CN2C3CCC2CC(NC(=O)c2cccc(F)c2)C3)cc1 (configuration not stated)	inconclusive: 2.06 µM [falling, partial curve, poor fit]
COc1ccc(-c2nnc(SCC(=O)N3CCCCC3)o2)cc1	inconclusive: 20.6 µM [activator, partial curve, poor fit]
CCCCn1c(CCc2ccccc2)nc2cc3[nH]c(=O)c(C(C)C)nc3cc21	inconclusive: 29.1 µM [falling, single point]
CCOC(=O)c1oc2ccccc2c1NC(=O)c1ccc2c(c1)OCO2	inconclusive: 5.17 µM [falling, partial curve]
Cc1nn(-c2ccccc2)c2c1CC(=O)Nc1ccccc1-2	inconclusive: 23.1 µM [activator, single point]
O=C(COc1ccccc1)Nc1c(C(=O)N2CCN(c3ccc(F)cc3)CC2)oc2ccccc12	inconclusive: 16.4 µM [activator, partial curve, poor fit]

From PubChem BioAssay AID504444 (National Center for Advancing Translational Sciences (NCATS), 2011)
